The supplement of paper PMC11264405

Key:
Assay in all cases: minimum inhibitory concentration
clindamycin = compound: CCC[C@@H]1C[C@@H](C(=O)N[C@@H]([C@H]2O[C@H](SC)[C@H](O)[C@@H](O)[C@H]2O)[C@H](C)Cl)N(C)C1 [clindamycin]
vancomycin = compound: CN[C@H](CC(C)C)C(=O)N[C@H]1C(=O)N[C@@H](CC(N)=O)C(=O)N[C@H]2C(=O)N[C@H]3C(=O)N[C@H](C(=O)N[C@H](C(=O)O)c4cc(O)cc(O)c4-c4cc3ccc4O)[C@H](O)c3ccc(c(Cl)c3)Oc3cc2cc(c3O[C@@H]2O[C@H](CO)[C@@H](O)[C@H](O)[C@H]2O[C@H]2C[C@](C)(N)[C@H](O)[C@H](C)O2)Oc2ccc(cc2Cl)[C@H]1O [vancomycin]
linezolid = compound: CC(=O)NC[C@H]1CN(c2ccc(N3CCOCC3)c(F)c2)C(=O)O1 [linezolid]
rifampicin = compound: CO[C@H]1/C=C/O[C@@]2(C)Oc3c(C)c(O)c4c(O)c(c(/C=N/N5CCN(C)CC5)c(O)c4c3C2=O)NC(=O)/C(C)=C\C=C\[C@H](C)[C@H](O)[C@@H](C)[C@@H](O)[C@@H](C)[C@H](OC(C)=O)[C@@H]1C [rifampicin]
imipenem = compound: C[C@@H](O)[C@H]1C(=O)N2C(C(=O)O)=C(SCCNC=N)C[C@H]12 [imipenem]
tigecycline = compound: CN(C)c1cc(NC(=O)CNC(C)(C)C)c(O)c2c1C[C@H]1C[C@H]3[C@H](N(C)C)C(O)=C(C(N)=O)C(=O)[C@@]3(O)C(O)=C1C2=O [tigecycline]
metronidazole = compound: Cc1ncc([N+](=O)[O-])n1CCO [metronidazole]
meropenem = compound: C[C@@H](O)[C@H]1C(=O)N2C(C(=O)O)=C(S[C@@H]3CN[C@H](C(=O)N(C)C)C3)[C@H](C)[C@H]12 [meropenem]
fidaxomicin = compound: CCc1c(Cl)c(O)c(Cl)c(O)c1C(=O)O[C@H]1[C@H](O)[C@H](OC)[C@H](OC/C2=C\C=C\C[C@H](O)/C(C)=C/[C@H](CC)[C@@H](O[C@@H]3OC(C)(C)[C@@H](OC(=O)C(C)C)[C@H](O)[C@@H]3O)/C(C)=C/C(C)=C/C[C@@H]([C@@H](C)O)OC2=O)O[C@@H]1C [fidaxomicin]

| Test System | minimum inhibitory concentration (clindamycin) | minimum inhibitory concentration (vancomycin) | minimum inhibitory concentration (linezolid) | minimum inhibitory concentration (rifampicin) | minimum inhibitory concentration (imipenem) | minimum inhibitory concentration (tigecycline) | minimum inhibitory concentration (metronidazole) | minimum inhibitory concentration (meropenem) | minimum inhibitory concentration (fidaxomicin) |
| --- | --- | --- | --- | --- | --- | --- | --- | --- | --- |
| Clostridioides difficile PCR ribotype 001 isolate #8 (European region: South, country: Spain, isolate source: Human, ribotype: 001) | > 128 µg/mL | 1 µg/mL | 2 µg/mL | 0.03 µg/mL | 4 µg/mL | 0.5 µg/mL | < 0.125 µg/mL | 4 µg/mL | 0.008 µg/mL |
| Clostridioides difficile PCR ribotype 001 isolate #9 (European region: North, country: UK, isolate source: Human, ribotype: 001) | 2 µg/mL | 0.5 µg/mL | 2 µg/mL | < 0.001 µg/mL | 2 µg/mL | < 0.03 µg/mL | < 0.125 µg/mL | 2 µg/mL | 0.06 µg/mL |
| Clostridioides difficile PCR ribotype 001 isolate #10 (European region: South, country: Italy, isolate source: Human, ribotype: 001) | 8 µg/mL | 1 µg/mL | 2 µg/mL | < 0.001 µg/mL | 4 µg/mL | 0.06 µg/mL | 0.5 µg/mL | 4 µg/mL | 0.008 µg/mL |
| Clostridioides difficile PCR ribotype 001 isolate #281 (European region: South, country: Spain, isolate source: Animal, ribotype: 001) | 2 µg/mL | 0.5 µg/mL | 2 µg/mL | < 0.001 µg/mL | 2 µg/mL | 0.06 µg/mL | < 0.125 µg/mL | 4 µg/mL | 0.008 µg/mL |
| Clostridioides difficile PCR ribotype 002 isolate #11 (European region: East, country: Poland, isolate source: Human, ribotype: 002) | 16 µg/mL | 0.5 µg/mL | 2 µg/mL | < 0.001 µg/mL | 2 µg/mL | 0.06 µg/mL | < 0.125 µg/mL | 2 µg/mL | 0.03 µg/mL |
| Clostridioides difficile PCR ribotype 002 isolate #12 (European region: North, country: Sweden, isolate source: Human, ribotype: 002) | 16 µg/mL | 2 µg/mL | 1 µg/mL | < 0.001 µg/mL | 4 µg/mL | < 0.03 µg/mL | 8 µg/mL | 4 µg/mL | 0.25 µg/mL |
| Clostridioides difficile PCR ribotype 002 isolate #13 (European region: North, country: Sweden, isolate source: Human, ribotype: 002) | 16 µg/mL | 2 µg/mL | 2 µg/mL | < 0.001 µg/mL | 4 µg/mL | < 0.03 µg/mL | < 0.125 µg/mL | 4 µg/mL | 0.015 µg/mL |
| Clostridioides difficile PCR ribotype 002 isolate #14 (European region: West, country: France, isolate source: Human, ribotype: 002) | 16 µg/mL | 1 µg/mL | 2 µg/mL | < 0.001 µg/mL | 2 µg/mL | < 0.03 µg/mL | < 0.125 µg/mL | 4 µg/mL | 0.06 µg/mL |
| Clostridioides difficile PCR ribotype 002 isolate #15 (European region: North, country: UK, isolate source: Human, ribotype: 002) | 16 µg/mL | 2 µg/mL | 2 µg/mL | < 0.001 µg/mL | 1 µg/mL | < 0.03 µg/mL | < 0.125 µg/mL | 8 µg/mL | 0.03 µg/mL |
| Clostridioides difficile PCR ribotype 002 isolate #16 (European region: North, country: UK, isolate source: Human, ribotype: 002) | 0.25 µg/mL | 0.25 µg/mL | 2 µg/mL | < 0.001 µg/mL | 2 µg/mL | < 0.03 µg/mL | < 0.125 µg/mL | 4 µg/mL | 0.06 µg/mL |
| Clostridioides difficile PCR ribotype 002 isolate #17 (European region: South, country: Spain, isolate source: Human, ribotype: 002) | 32 µg/mL | 0.5 µg/mL | 2 µg/mL | < 0.001 µg/mL | 2 µg/mL | 0.06 µg/mL | 0.25 µg/mL | 2 µg/mL | 0.06 µg/mL |
| Clostridioides difficile PCR ribotype 002 isolate #18 (European region: North, country: UK, isolate source: Human, ribotype: 002) | 8 µg/mL | 1 µg/mL | 2 µg/mL | < 0.001 µg/mL | 2 µg/mL | < 0.03 µg/mL | < 0.125 µg/mL | 4 µg/mL | 0.03 µg/mL |
| Clostridioides difficile PCR ribotype 002 isolate #19 (European region: North, country: UK, isolate source: Human, ribotype: 002) | 2 µg/mL | 0.5 µg/mL | 2 µg/mL | < 0.001 µg/mL | 2 µg/mL | < 0.03 µg/mL | < 0.125 µg/mL | 2 µg/mL | 0.03 µg/mL |
| Clostridioides difficile PCR ribotype 002 isolate #20 (European region: North, country: UK, isolate source: Human, ribotype: 002) | 2 µg/mL | 0.5 µg/mL | 0.25 µg/mL | < 0.001 µg/mL | 2 µg/mL | < 0.03 µg/mL | < 0.125 µg/mL | 2 µg/mL | 0.03 µg/mL |
| Clostridioides difficile PCR ribotype 002 isolate #21 (European region: West, country: Netherlands, isolate source: Human, ribotype: 002) | 16 µg/mL | 1 µg/mL | 2 µg/mL | < 0.001 µg/mL | 0.5 µg/mL | < 0.03 µg/mL | 0.25 µg/mL | 4 µg/mL | 0.03 µg/mL |
| Clostridioides difficile PCR ribotype 002 isolate #22 (European region: South, country: Italy, isolate source: Human, ribotype: 002) | 8 µg/mL | 0.5 µg/mL | 2 µg/mL | < 0.001 µg/mL | 1 µg/mL | 0.06 µg/mL | < 0.125 µg/mL | 4 µg/mL | 0.03 µg/mL |
| Clostridioides difficile PCR ribotype 002 isolate #282 (European region: South, country: Spain, isolate source: Animal, ribotype: 002) | > 128 µg/mL | 1 µg/mL | 2 µg/mL | < 0.001 µg/mL | 4 µg/mL | < 0.03 µg/mL | 0.25 µg/mL | 2 µg/mL | 0.008 µg/mL |
| Clostridioides difficile PCR ribotype 003 isolate #23 (European region: North, country: UK, isolate source: Human, ribotype: 003) | 4 µg/mL | 1 µg/mL | 2 µg/mL | < 0.001 µg/mL | 4 µg/mL | 0.06 µg/mL | < 0.125 µg/mL | 4 µg/mL | 0.03 µg/mL |
| Clostridioides difficile PCR ribotype 003 isolate #24 (European region: North, country: UK, isolate source: Human, ribotype: 003) | 4 µg/mL | 0.5 µg/mL | 2 µg/mL | < 0.001 µg/mL | 4 µg/mL | 0.06 µg/mL | < 0.125 µg/mL | 2 µg/mL | 0.03 µg/mL |
| Clostridioides difficile PCR ribotype 003 isolate #25 (European region: North, country: UK, isolate source: Human, ribotype: 003) | 8 µg/mL | 1 µg/mL | 2 µg/mL | < 0.001 µg/mL | 4 µg/mL | 0.06 µg/mL | < 0.125 µg/mL | 4 µg/mL | 0.03 µg/mL |
| Clostridioides difficile PCR ribotype 003 isolate #26 (European region: South, country: Spain, isolate source: Human, ribotype: 003) | 4 µg/mL | 1 µg/mL | 2 µg/mL | 0.002 µg/mL | 4 µg/mL | 0.06 µg/mL | < 0.125 µg/mL | 4 µg/mL | 0.06 µg/mL |
| Clostridioides difficile PCR ribotype 003 isolate #27 (European region: North, country: UK, isolate source: Human, ribotype: 003) | 8 µg/mL | 0.5 µg/mL | 2 µg/mL | < 0.001 µg/mL | 4 µg/mL | < 0.03 µg/mL | 0.5 µg/mL | 2 µg/mL | 0.06 µg/mL |
| Clostridioides difficile PCR ribotype 003 isolate #29 (European region: North, country: UK, isolate source: Human, ribotype: 003) | 2 µg/mL | 0.5 µg/mL | 2 µg/mL | < 0.001 µg/mL | 2 µg/mL | < 0.03 µg/mL | < 0.125 µg/mL | 4 µg/mL | 0.03 µg/mL |
| Clostridioides difficile PCR ribotype 003 isolate #284 (European region: West, country: France, isolate source: Animal, ribotype: 003) | 16 µg/mL | 0.5 µg/mL | 2 µg/mL | < 0.001 µg/mL | 2 µg/mL | < 0.03 µg/mL | < 0.125 µg/mL | 4 µg/mL | 0.03 µg/mL |
| Clostridioides difficile PCR ribotype 005 isolate #30 (European region: North, country: UK, isolate source: Human, ribotype: 005) | 0.25 µg/mL | 1 µg/mL | 2 µg/mL | < 0.001 µg/mL | 4 µg/mL | < 0.03 µg/mL | 0.25 µg/mL | 2 µg/mL | 0.03 µg/mL |
| Clostridioides difficile PCR ribotype 005 isolate #31 (European region: North, country: UK, isolate source: Human, ribotype: 005) | 4 µg/mL | 0.25 µg/mL | 2 µg/mL | < 0.001 µg/mL | 2 µg/mL | 0.06 µg/mL | 0.25 µg/mL | 2 µg/mL | 0.03 µg/mL |

Fetched one by one from the entries so far, 2 records:

| Test System | minimum inhibitory concentration (clindamycin) | minimum inhibitory concentration (vancomycin) | minimum inhibitory concentration (linezolid) | minimum inhibitory concentration (rifampicin) | minimum inhibitory concentration (imipenem) | minimum inhibitory concentration (tigecycline) | minimum inhibitory concentration (metronidazole) | minimum inhibitory concentration (meropenem) | minimum inhibitory concentration (fidaxomicin) |
| --- | --- | --- | --- | --- | --- | --- | --- | --- | --- |
| Clostridioides difficile PCR ribotype 002 isolate #22 (European region: South, country: Italy, isolate source: Human, ribotype: 002) | 8 µg/mL | 0.5 µg/mL | 2 µg/mL | < 0.001 µg/mL | 1 µg/mL | 0.06 µg/mL | < 0.125 µg/mL | 4 µg/mL | 0.03 µg/mL |
| Clostridioides difficile PCR ribotype 002 isolate #15 (European region: North, country: UK, isolate source: Human, ribotype: 002) | 16 µg/mL | 2 µg/mL | 2 µg/mL | < 0.001 µg/mL | 1 µg/mL | < 0.03 µg/mL | < 0.125 µg/mL | 8 µg/mL | 0.03 µg/mL |
